Measured values taken from patent US12478677B2, “Tunable luminescent organic salts for enhanced imaging and photodynamic therapy” (BOARD OF TRUSTEES OF MICHIGAN STATE UNIVERSITY, priority 2017, dated 2025).

Tested on: A549 cells
Assay: Colocalization of organic salt with Rhodamine123 (mitochondrial) fluorescence
Assay type: cell-based, human
Conditions: for Mander's Coefficient 2: overlap of green to red area; for Mander's Coefficient 1: overlap of red to green area; for Pearson's Coefficient: red (organic salt) vs green (Rhodamine123) fluorescence

SMILES | Mander's Coefficient 2 | Mander's Coefficient 1 | Pearson's Coefficient
CCN1C(=CC=C2CCCC(C=CC3=[N+](CC)c4ccc5ccccc5c4C3(C)C)=C2Cl)C(C)(C)c2c1ccc1ccccc21.Fc1ccc([B-](c2ccc(F)cc2)(c2ccc(F)cc2)c2ccc(F)cc2)cc1 [CyFPhB] | 0.992 | 0.997 | 0.853
CCN1C(=CC=C2CCCC(C=CC3=[N+](CC)c4ccc5ccccc5c4C3(C)C)=C2Cl)C(C)(C)c2c1ccc1ccccc21.F[P-](F)(F)(F)(F)F [CyPF6] | 0.971 | 0.991 | 0.852
CCN1C(=CC=C2CCCC(C=CC3=[N+](CC)c4ccc5ccccc5c4C3(C)C)=C2Cl)C(C)(C)c2c1ccc1ccccc21.Fc1c(F)c(F)c([B-](c2c(F)c(F)c(F)c(F)c2F)(c2c(F)c(F)c(F)c(F)c2F)c2c(F)c(F)c(F)c(F)c2F)c(F)c1F [CyTPFB] | 0.983 | 0.967 | 0.901
